According to paper PMC3527332:
These are yes or no findings as the source states them, for the method shown. For part of these data: In cells and extracts the contact can be indirect. Some binding calls cover weakened binding; strength is not graded here. For part of these data: Tags and fused reporters may be left off the sequences shown.

Amino acid sequences for entries named in this document (tags omitted).
UniProt Q9M2Z2: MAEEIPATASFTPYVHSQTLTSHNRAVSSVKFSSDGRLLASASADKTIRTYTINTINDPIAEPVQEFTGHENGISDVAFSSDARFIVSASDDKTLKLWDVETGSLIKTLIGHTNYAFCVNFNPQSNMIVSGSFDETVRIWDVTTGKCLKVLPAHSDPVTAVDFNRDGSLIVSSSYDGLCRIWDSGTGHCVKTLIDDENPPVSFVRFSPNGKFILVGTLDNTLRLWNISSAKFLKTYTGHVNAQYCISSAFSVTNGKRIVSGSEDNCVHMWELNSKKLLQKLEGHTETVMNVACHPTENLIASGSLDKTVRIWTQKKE

Experiments:
[1] = target: T1, AtASH2, DNA-binding-domain fusion from pGBKT-AtASH2 (Arabidopsis) (UniProt Q9C8J7); assay: two-hybrid; yeast strain AH190; baits fused to the DNA binding domain (pGBKT), preys fused to the activation domain (pGADT7); growth on SD medium lacking Trp, Leu, His and Ade
T1 sequence: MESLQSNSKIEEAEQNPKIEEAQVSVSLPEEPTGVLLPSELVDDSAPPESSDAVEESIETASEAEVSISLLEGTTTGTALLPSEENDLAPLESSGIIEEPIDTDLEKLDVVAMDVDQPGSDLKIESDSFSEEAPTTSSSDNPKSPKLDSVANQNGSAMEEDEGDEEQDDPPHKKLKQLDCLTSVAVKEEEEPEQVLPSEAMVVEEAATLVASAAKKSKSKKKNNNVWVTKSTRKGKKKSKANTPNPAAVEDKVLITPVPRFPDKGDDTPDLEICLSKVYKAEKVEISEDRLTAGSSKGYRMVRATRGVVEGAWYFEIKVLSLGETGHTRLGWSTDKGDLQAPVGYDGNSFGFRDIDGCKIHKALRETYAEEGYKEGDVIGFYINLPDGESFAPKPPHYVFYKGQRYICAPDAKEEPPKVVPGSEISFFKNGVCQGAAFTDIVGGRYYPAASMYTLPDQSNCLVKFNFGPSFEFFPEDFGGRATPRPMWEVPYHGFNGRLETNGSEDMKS

[2] = target: AtWDR5a, DNA-binding-domain fusion from pGBKT-AtWDR5 (Arabidopsis) (UniProt Q9M2Z2); assay: as above
[3] = target: TAP-tagged AtWDR5a fusion protein (Arabidopsis) (UniProt Q9M2Z2); assay: pull-down; TAP-tagged AtWDR5a as bait, total cellular protein extracts; Coomassie-stained gel, western blot with antiATX1 antibody, bands identified by MS

Binder | binding [1] | binding [2] | binding [3]
ATX1 (ARABIDOPSIS TRITHORAX1), activation-domain fusion from pGADT7-ATX1 (protein, UniProt Q9C5X4 1-1062) MACFSNETQIEIDVHDLVEAPIRYDSIESIYSIPSSALCCVNAVGSHSLMSKKVKAQKLPMIEQFEIEGSGVSASDDCCRSDDYKLRIQRPEIVRVYYRRRKRPLRECLLDQAVAVKTESVELDEIDCFEEKKRRKIGNCELVKSGMESIGLRRCKENNAFSGNKQNGSSRRKGSSSKNQDKATLASRSAKKWVRLSYDGVDPTSFIGLQCKVFWPLDALWYEGSIVGYSAERKRYTVKYRDGCDEDIVFDREMIKFLVSREEMELLHLKFCTSNVTVDGRDYDEMVVLAATLDECQDFEPGDIVWAKLAGHAMWPAVIVDESIIGERKGLNNKVSGGGSLLVQFFGTHDFARIKVKQAISFIKGLLSPSHLKCKQPRFEEGMQEAKMYLKAHRLPERMSQLQKGADSVDSDMANSTEEGNSGGDLLNDGEVWLRPTEHVDFRHIIGDLLIINLGKVVTDSQFFKDENHIWPEGYTAMRKFTSLTDHSASALYKMEVLRDAETKTHPLFIVTADSGEQFKGPTPSACWNKIYNRIKKVQNSDSPNILGEELNGSGTDMFGLSNPEVIKLVQDLSKSRPSSHVSMCKNSLGRHQNQPTGYRPVRVDWKDLDKCNVCHMDEEYENNLFLQCDKCRMMVHAKCYGELEPCDGALWLCNLCRPGAPDMPPRCCLCPVVGGAMKPTTDGRWAHLACAIWIPETCLSDVKKMEPIDGVNKVSKDRWKLMCTICGVSYGACIQCSNNSCRVAYHPLCARAAGLCVELENDMSVEGEEADQCIRMLSFCKRHRQTSTACLGSEDRIKSATHKTSEYLPPPNPSGCARTEPYNCFGRRGRKEPEALAAASSKRLFVENQPYVIGGYSRLEFSTYKSIHGSKVSQMNTPSNILSMAEKYRYMRETYRKRLAFGKSGIHGFGIFAKLPHRAGDMMIEYTGELVRPSIADKREQLIYNSMVGAGTYMFRIDDERVIDATRTGSIAHLINHSCVPNCYSRVITVNGDEHIIIFAKRHIPKWEELTYDYRFFSIGERLSCSCGFPGCRGVVNDTEAEEQHAKICVPRCDLIDWTAE | no binding | binds | –
ATX1 (120 kD) from total cellular protein extracts (protein, UniProt Q9C5X4 1-1062) MACFSNETQIEIDVHDLVEAPIRYDSIESIYSIPSSALCCVNAVGSHSLMSKKVKAQKLPMIEQFEIEGSGVSASDDCCRSDDYKLRIQRPEIVRVYYRRRKRPLRECLLDQAVAVKTESVELDEIDCFEEKKRRKIGNCELVKSGMESIGLRRCKENNAFSGNKQNGSSRRKGSSSKNQDKATLASRSAKKWVRLSYDGVDPTSFIGLQCKVFWPLDALWYEGSIVGYSAERKRYTVKYRDGCDEDIVFDREMIKFLVSREEMELLHLKFCTSNVTVDGRDYDEMVVLAATLDECQDFEPGDIVWAKLAGHAMWPAVIVDESIIGERKGLNNKVSGGGSLLVQFFGTHDFARIKVKQAISFIKGLLSPSHLKCKQPRFEEGMQEAKMYLKAHRLPERMSQLQKGADSVDSDMANSTEEGNSGGDLLNDGEVWLRPTEHVDFRHIIGDLLIINLGKVVTDSQFFKDENHIWPEGYTAMRKFTSLTDHSASALYKMEVLRDAETKTHPLFIVTADSGEQFKGPTPSACWNKIYNRIKKVQNSDSPNILGEELNGSGTDMFGLSNPEVIKLVQDLSKSRPSSHVSMCKNSLGRHQNQPTGYRPVRVDWKDLDKCNVCHMDEEYENNLFLQCDKCRMMVHAKCYGELEPCDGALWLCNLCRPGAPDMPPRCCLCPVVGGAMKPTTDGRWAHLACAIWIPETCLSDVKKMEPIDGVNKVSKDRWKLMCTICGVSYGACIQCSNNSCRVAYHPLCARAAGLCVELENDMSVEGEEADQCIRMLSFCKRHRQTSTACLGSEDRIKSATHKTSEYLPPPNPSGCARTEPYNCFGRRGRKEPEALAAASSKRLFVENQPYVIGGYSRLEFSTYKSIHGSKVSQMNTPSNILSMAEKYRYMRETYRKRLAFGKSGIHGFGIFAKLPHRAGDMMIEYTGELVRPSIADKREQLIYNSMVGAGTYMFRIDDERVIDATRTGSIAHLINHSCVPNCYSRVITVNGDEHIIIFAKRHIPKWEELTYDYRFFSIGERLSCSCGFPGCRGVVNDTEAEEQHAKICVPRCDLIDWTAE | – | – | binds
